Assay results as given in article PMC12709188.
Results are given in words; binding and its absence hold for the method and conditions named. Binding seen in cells or lysates may run through a third protein. Some binding calls cover weakened binding; strength is not graded here. Sequences can lack the tags named with a protein.

Chains of the proteins cited; added tags and fusions are not shown. Lines headed by an entry give the natural chain unless they say otherwise; changes in a name come on top.
UniProt A0QSL8: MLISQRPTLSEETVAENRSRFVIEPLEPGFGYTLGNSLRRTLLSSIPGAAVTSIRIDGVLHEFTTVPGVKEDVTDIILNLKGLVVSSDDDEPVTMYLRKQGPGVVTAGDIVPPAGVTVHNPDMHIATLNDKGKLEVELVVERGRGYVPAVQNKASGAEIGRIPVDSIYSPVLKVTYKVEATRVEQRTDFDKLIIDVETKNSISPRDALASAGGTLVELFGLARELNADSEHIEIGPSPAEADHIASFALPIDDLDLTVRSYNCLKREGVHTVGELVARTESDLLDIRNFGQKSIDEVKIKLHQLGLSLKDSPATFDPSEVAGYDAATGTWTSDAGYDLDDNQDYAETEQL
UniProt A0QWV9: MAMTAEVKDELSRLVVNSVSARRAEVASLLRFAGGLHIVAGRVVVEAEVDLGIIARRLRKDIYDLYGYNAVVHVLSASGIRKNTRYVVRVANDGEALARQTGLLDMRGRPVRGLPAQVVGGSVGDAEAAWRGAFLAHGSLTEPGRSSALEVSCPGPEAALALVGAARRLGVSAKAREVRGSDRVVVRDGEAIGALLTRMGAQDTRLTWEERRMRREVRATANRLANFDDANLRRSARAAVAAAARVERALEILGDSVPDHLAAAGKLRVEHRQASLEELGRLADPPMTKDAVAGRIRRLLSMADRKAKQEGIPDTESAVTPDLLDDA

Experiments:
[1] = biological target: T1, CarD–FLAG (additional copy of FLAG-tagged CarD under an ATc-inducible promoter) (M. smegmatis) (UniProt A0R561); assay: co-IP; FLAG pull-down: M. smegmatis lysates (2–4 mg protein; exponential and stationary phase; for RNAP-FLAG also after crsL knock-down) with M2 anti-FLAG resin 16–18 h at 4°C in 20 mM Tris–HCl pH 7.9, 150 mM KCl, 1 mM MgCl2; SDS–PAGE, silver stain, bands identified by MALDI-FTICR MS and/or western blot
T1 sequence: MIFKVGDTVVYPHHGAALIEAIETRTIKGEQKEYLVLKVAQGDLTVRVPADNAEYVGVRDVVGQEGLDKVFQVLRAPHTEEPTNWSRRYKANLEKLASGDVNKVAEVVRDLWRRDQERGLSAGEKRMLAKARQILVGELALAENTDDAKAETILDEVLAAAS

[2] = biological target: T2, CarD–gFLAG (FLAG-tag sequence inserted into the M. smegmatis genome at the carD locus) (M. smegmatis) (UniProt A0R561); assay: as above
T2 sequence: T1 sequence

| binding [1] | binding [2] | Substance |
| --- | --- | --- |
| binds |  | DNA-dependent RNA polymerase (RNAP) (from UniProt A0QSL8 1-350; P60281 1-1169; A0QS66 1-1317; A0QWT1 1-107) (complex) |
|  | binds | WhiA (from UniProt A0QWV9 1-327) |
